# From PubChem BioAssay AID1487 (National Center for Advancing Translational Sciences (NCATS), 2009)
# This is one part of the list. The main result of the screen is listed elsewhere. These columns were measured beside it and carry no call. The list favours compounds with an active or inconclusive main result. Potencies come from curve fits of mixed quality, noted in brackets.
# Test: qHTS Assay for Modulators of Lamin A Splicing
# Settings: HeLa LMNA splicing GFP/RFP minigene ratio, 48 h
# Outline: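 S3 HeLa stable clones carrying a lamin A-EGFP splicing minigene plus DsRed2 were seeded at 600 cells/well in Opti-MEM with 2% FBS, pin-dosed and incubated 48 h at 37°C. Acumen cytometry (488 nm) gave the GFP/RFP total-intensity ratio.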
# [1] = measured here: GFP splicing reporter channel
# [2] = measured here: RFP viability control channel
smiles,measurement,setting,value
O=C(CC1N=C2c3ccccc3N=C(SCc3ccc(Cl)cc3)N2C1=O)NCCc1ccccc1 (configuration not stated),AC50,[1],"11.2 µM [falling, partial curve]"
same,AC50,[2],"14.1 µM [falling, partial curve]"
O=S(=O)(Nc1cccc(-c2nc3cccnc3s2)c1)c1ccc2c(c1)OCCO2,AC50,[2],"12.6 µM [rising, partial curve]"
CCc1ccc(NC(=O)CC2C(=O)NCCN2C(=S)Nc2ccccc2)cc1 (configuration not stated),AC50,[1],"14.1 µM [rising, single point]"
same,AC50,[2],"35.5 µM [rising, single point]"
O=C1CCC(=O)N1c1cccc(OS(=O)(=O)c2ccccc2)c1,AC50,[1],"6.31 µM [falling, partial curve]"
CC(C)c1ccc(CCNC(=O)c2ccc([N+](=O)[O-])cc2)cc1,AC50,[2],"14.1 µM [rising, partial curve, poor fit]"
O=C(Cc1ccc(Cl)cc1)c1c[nH]c(C(=O)NCCCN2CCOCC2)c1,AC50,[1],"0.0501 µM [falling, full curve]"
CCN(CC)C(=O)CSc1ncnc2c1cnn2Cc1ccccc1,AC50,[1],"22.4 µM [rising, partial curve]"
same,AC50,[2],"35.5 µM [rising, single point]"
CCC1=Nc2cc(C(=O)NCc3ccco3)ccc2Sc2ccc(C)cc21,AC50,[2],"35.5 µM [falling, single point]"
COc1ccccc1/C=C/C(=O)NCC(=O)N/N=C/c1cc(Br)ccc1OC,AC50,[2],"10 µM [rising, partial curve, poor fit]"
COCc1cc(C)nc(SCc2nc3ccccc3c(=O)[nH]2)c1C#N,AC50,[1],"0.178 µM [falling, full curve, poor fit]"
same,AC50,[2],"1 µM [falling, partial curve]"
COc1ccc2c(c1)CCc1c(C(=O)N3CCCc4ccccc43)noc1-2,AC50,[2],"6.31 µM [rising, partial curve, poor fit]"
COc1cccc(CNC(=O)CN2C(=O)N(c3cc(C)ccc3C)S(=O)(=O)c3ccccc32)c1OC,AC50,[2],"0.355 µM [rising, full curve, poor fit]"
O=C(c1cn(-c2ccccc2)nc1-c1ccc(F)cc1)N1CCCCC1,AC50,[1],"28.2 µM [rising, partial curve, poor fit]"
CCCCOc1ccc(OC(=O)c2sc3ncn(Cc4cccc(F)c4)c(=O)c3c2C)cc1,AC50,[2],"0.02 µM [falling, full curve, poor fit]"
CCOc1ccccc1C1C2C(=O)N(c3ccccc3)C(=O)C2ON1c1ccccc1 (configuration not stated),AC50,[2],"2.51 µM [falling, partial curve, poor fit]"
CCn1c(SCC(=O)Nc2cc(C)ccc2C)nc2c(c1=O)SC(C)C2 (configuration not stated),AC50,[1],"5.62 µM [falling, partial curve, poor fit]"
same,AC50,[2],"5.62 µM [falling, single point]"
c1ccc(C2OC3c4cccc5cccc(c45)C3N2c2ccccc2)cc1 (configuration not stated),AC50,[2],"35.5 µM [rising, single point]"
CC(=O)N1CCc2c(sc(NC(=O)c3ccc4c(c3)OCCO4)c2C#N)C1,AC50,[2],"2.82 µM [rising, partial curve]"
CCCCCC(=O)N/N=C(\C)c1ccccn1,AC50,[2],"6.31 µM [rising, full curve]"
COc1cccc(Nc2ncc3ncc(=O)n(C[C@H]4CCCO4)c3n2)c1,AC50,[1],"11.2 µM [falling, partial curve]"
same,AC50,[2],"11.2 µM [falling, partial curve]"
CN(C)/C=N/C(=S)Nc1ccccc1F,AC50,[1],"35.5 µM [rising, single point]"
O=[N+]([O-])c1ccc2cn[nH]c2c1,AC50,[1],"14.1 µM [rising, single point]"
same,AC50,[2],"14.1 µM [rising, partial curve, poor fit]"
O=CN1CCN(C(=O)COc2ccc(Cl)cc2Br)CC1,AC50,[1],"5.01 µM [rising, partial curve]"
same,AC50,[2],"5.01 µM [rising, partial curve, poor fit]"
CCc1ccc(C2=CC(c3cc(Br)ccc3F)n3ncnc3N2)cc1 (configuration not stated),AC50,[2],"2.82 µM [rising, partial curve]"
Clc1nc(-c2ccccn2)nc2scc(-c3ccccc3)c12,AC50,[2],"2.51 µM [rising, partial curve]"
O=C(CSc1ncc(CO)n1Cc1ccccc1)Nc1nc2ccccc2s1,AC50,[1],"17.8 µM [falling, single point]"
same,AC50,[2],"12.6 µM [falling, partial curve, poor fit]"
COc1cc(CN(C(=O)COc2ccc(Br)cc2)c2ccccn2)cc(OC)c1OC,AC50,[1],"0.0708 µM [falling, full curve]"
same,AC50,[2],"0.141 µM [falling, full curve, poor fit]"
CN1CCN(C(c2ccccc2)c2ccccc2)CC1,AC50,[1],"0.000794 µM [falling, full curve, poor fit]"
N#CC1(C#N)[C@@H](C(=O)C23CC4CC(CC(C4)C2)C3)C12CCOCC2,AC50,[1],"2 µM [rising, single point]"
same,AC50,[2],"2.24 µM [rising, partial curve]"
CC1(C)C2CCC1(CS(=O)(=O)Nc1ccc(S(=O)(=O)NC3CCCCC3)cc1)C(=O)C2 (configuration not stated),AC50,[2],"35.5 µM [rising, single point]"
CC(C(=O)Nc1ccccc1)c1ccc(-c2ccccc2)c(F)c1 (configuration not stated),AC50,[2],"7.08 µM [rising, partial curve]"
CCCCCOC(=O)c1cc(=O)[nH]c2ccccc12,AC50,[1],"12.6 µM [falling, single point]"
same,AC50,[2],"11.2 µM [falling, partial curve, poor fit]"
Fc1ccc(-c2nn(-c3ccccc3)cc2CNCc2ccccc2)cc1,AC50,[1],"22.4 µM [falling, partial curve]"
same,AC50,[2],"25.1 µM [falling, partial curve]"
O=c1[nH]c(-c2ccc(F)cc2)nc2c1sc(=S)n2-c1ccccc1,AC50,[2],"12.6 µM [rising, partial curve]"
CC(=O)N(Cc1cc2cc(C)c(C)cc2n2nnnc12)CC1COCCO1 (configuration not stated),AC50,[2],"0.282 µM [falling, full curve, poor fit]"
CN(C)CCCN(C(=O)COc1ccccc1)c1nc2c(Cl)cccc2s1,AC50,[1],"1.41 µM [rising, partial curve, poor fit]"
same,AC50,[2],"0.631 µM [rising, full curve, poor fit]"
CC(C)N(C(=O)NC(=O)NCC1CCCO1)S(C)(=O)=O (configuration not stated),AC50,[2],"35.5 µM [falling, single point]"
CCOC(=O)/C(=C\C=C\c1ccccc1)NC(=O)c1ccccc1,AC50,[2],"22.4 µM [rising, partial curve, poor fit]"
Fc1ccc2nc3n(c2c1F)CCCCCC3,AC50,[1],"0.398 µM [rising, full curve, poor fit]"
CCCCCn1c(=NC(C)=O)c(C#N)cc2c(=O)n3ccccc3nc21,AC50,[2],"3.98 µM [falling, partial curve, poor fit]"
Cc1ccc(Nc2n[nH]c(C)c2[N+](=O)[O-])c(C)c1,AC50,[1],"6.31 µM [rising, partial curve]"
same,AC50,[2],"2 µM [rising, full curve]"
O=C1N(CCCN2C(=O)C3(OCCO3)c3ccccc32)c2ccccc2C12OCCO2,AC50,[1],"14.1 µM [rising, single point]"
same,AC50,[2],"4.47 µM [rising, partial curve]"
COc1ccccc1NS(=O)(=O)c1cccc(C(=O)N/N=C/c2c(C)nn(-c3ccccc3)c2N2CCCC2)c1,AC50,[1],"12.6 µM [rising, single point]"
same,AC50,[2],"20 µM [rising, single point]"
CCOC(=O)c1c(C)oc2ncnc(Nc3ccc(F)cc3Cl)c12,AC50,[1],"1.26 µM [falling, full curve, poor fit]"
same,AC50,[2],"0.631 µM [falling, full curve]"
Cc1cc(C)c(S(=O)(=O)NCc2ccncc2)c(C)c1,AC50,[1],"0.355 µM [rising, full curve]"
same,AC50,[2],"2.24 µM [rising, full curve]"
CCOC(=O)C/C(C)=N\Nc1ccc([N+](=O)[O-])cc1[N+](=O)[O-],AC50,[2],"12.6 µM [falling, partial curve, poor fit]"
Cc1ccc(OCC(=O)Nc2ccc(Cl)c(-c3nc4ncccc4o3)c2)cc1C,AC50,[1],"1 µM [falling, partial curve, poor fit]"
same,AC50,[2],"17.8 µM [falling, partial curve, poor fit]"
O=C(CSc1nnnn1C1CCCCC1)Nc1cccc(NC(=O)c2ccco2)c1,AC50,[2],"1.78 µM [rising, single point]"
COc1cc(SC)ccc1C(=O)N1CCCCCC1,AC50,[2],"35.5 µM [rising, single point]"
O=C(COC(=O)C1(c2ccc(Cl)cc2)CCCC1)N1CCc2ccccc21,AC50,[1],"11.2 µM [rising, single point]"
same,AC50,[2],"35.5 µM [rising, single point]"
CCOc1ccc(NC(=S)N=Nc2c(O)[nH]c3ccccc23)cc1,AC50,[1],"14.1 µM [falling, single point]"
same,AC50,[2],"4.47 µM [rising, partial curve]"
Cn1nnnc1SCCCNCc1ccc(-c2ccc(Br)cc2)o1,AC50,[1],"0.251 µM [falling, partial curve, poor fit]"
same,AC50,[2],"0.0562 µM [falling, full curve, poor fit]"
C=CCNC(=O)N1CCc2nc(-c3ccc(OC)cc3C)c3c(c2C1)CO[C@@H](c1ccccc1)C3,AC50,[1],"5.62 µM [rising, single point]"
same,AC50,[2],"0.631 µM [falling, partial curve, poor fit]"

# Rewritten bar-delimited: part of the list above.
smiles | measurement | setting | value
Cc1ccc(Nc2n[nH]c(C)c2[N+](=O)[O-])c(C)c1 | AC50 | [2] | 2 µM [rising, full curve]
O=C(CSc1nnnn1C1CCCCC1)Nc1cccc(NC(=O)c2ccco2)c1 | AC50 | [2] | 1.78 µM [rising, single point]
COc1cc(SC)ccc1C(=O)N1CCCCCC1 | AC50 | [2] | 35.5 µM [rising, single point]

# Another view of part of the listing above.
smiles	measurement	setting	value
CC(C)c1ccc(CCNC(=O)c2ccc([N+](=O)[O-])cc2)cc1	AC50	[2]	14.1 µM [rising, partial curve, poor fit]
CCn1c(SCC(=O)Nc2cc(C)ccc2C)nc2c(c1=O)SC(C)C2 (configuration not stated)	AC50	[1]	5.62 µM [falling, partial curve, poor fit]
